From publication PMC5177772
These are yes or no findings as the source states them, for the method shown. In cells and extracts the contact can be indirect. Some entries that bind do so weakly or less than the wild type. Sequences can lack the tags named with a protein.

By UniProt entry, the sequences of proteins in these tests, tags left out.
UniProt P10275: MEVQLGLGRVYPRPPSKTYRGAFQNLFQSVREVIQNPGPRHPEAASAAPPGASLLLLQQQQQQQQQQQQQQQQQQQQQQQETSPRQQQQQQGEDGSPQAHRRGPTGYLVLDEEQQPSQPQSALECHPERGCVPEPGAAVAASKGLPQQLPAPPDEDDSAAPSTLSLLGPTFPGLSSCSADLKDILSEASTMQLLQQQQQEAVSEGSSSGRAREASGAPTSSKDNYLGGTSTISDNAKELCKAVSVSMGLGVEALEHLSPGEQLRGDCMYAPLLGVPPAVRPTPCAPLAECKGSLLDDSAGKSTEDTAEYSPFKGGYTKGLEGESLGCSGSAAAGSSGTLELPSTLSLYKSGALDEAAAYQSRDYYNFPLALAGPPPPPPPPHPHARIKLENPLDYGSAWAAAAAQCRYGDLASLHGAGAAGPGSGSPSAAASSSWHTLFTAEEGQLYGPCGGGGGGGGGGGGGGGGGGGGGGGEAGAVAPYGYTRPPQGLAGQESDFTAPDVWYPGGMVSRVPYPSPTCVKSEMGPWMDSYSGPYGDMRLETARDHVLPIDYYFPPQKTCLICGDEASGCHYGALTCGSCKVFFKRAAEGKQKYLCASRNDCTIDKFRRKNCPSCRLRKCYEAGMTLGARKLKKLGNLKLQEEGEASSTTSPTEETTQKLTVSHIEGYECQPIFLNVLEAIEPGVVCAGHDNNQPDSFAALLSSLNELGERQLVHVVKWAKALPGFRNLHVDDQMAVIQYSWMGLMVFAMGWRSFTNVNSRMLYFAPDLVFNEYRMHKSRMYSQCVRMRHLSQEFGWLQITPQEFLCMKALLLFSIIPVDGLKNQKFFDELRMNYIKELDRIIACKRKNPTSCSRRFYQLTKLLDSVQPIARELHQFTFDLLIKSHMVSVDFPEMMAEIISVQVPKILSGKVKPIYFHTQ

Target: GFP-tagged androgen receptor (AR) (UniProt P10275)
Experiment: co-IP; Flag-PHF8 (wild type or H247A) and GFP-AR co-expressed in 293FT/HEK293T cells, with or without 10 nM DHT; lysis in RIPA buffer; immunoprecipitation with anti-Flag or anti-GFP antibody overnight at 4 °C, protein A/G-Sepharose, PBS washes; western blot

binding: binds
B1: Flag-tagged PHF8 (H247A) demethylase-deficient mutant (protein, UniProt Q9UPP1-2 1-1024)
chain: MASVPVYCLCRLPYDVTRFMIECDMCQDWFHGSCVGVEEEKAADIDLYHCPNCEVLHGPSIMKKRRGSSKGHDTHKGKPVKTGSPTFVRELRSRTFDSSDEVILKPTGNQLTVEFLEENSFSVPILVLKKDGLGMTLPSPSFTVRDVEHYVGSDKEIDVIDVTRQADCKMKLGDFVKYYYSGKREKVLNVISLEFSDTRLSNLVETPKIVRKLSWVENLWPEECVFERPNVQKYCLMSVRDSYTDFAIDFGGTSVWYHVLKGEKIFYLIRPTNANLTLFECWSSSSNQNEMFFGDQVDKCYKCSVKQGQTLFIPTGWIHAVLTPVDCLAFGGNFLHSLNIEMQLKAYEIEKRLSTADLFRFPNFETICWYVGKHILDIFRGLRENRRHPASYLVHGGKALNLAFRAWTRKEALPDHEDEIPETVRTVQLIKDLAREIRLVEDIFQQNVGKTSNIFGLQRIFPAGSIPLTRPAHSTSVSMSRLSLPSKNGSKKKGLKPKELFKKAERKGKESSALGPAGQLSYNLMDTYSHQALKTGSFQKAKFNITGACLNDSDDDSPDLDLDGNESPLALLMSNGSTKRVKSLSKSRRTKIAKKVDKARLMAEQVMEDEFDLDSDDELQIDERLGKEKATLIIRPKFPRKLPRAKPCSDPNRVREPGEVEFDIEEDYTTDEDMVEGVEGKLGNGSGAGGILDLLKASRQVGGPDYAALTEAPASPSTQEAIQGMLCMANLQSSSSSPATSSLQAWWTGGQDRSSGSSSSGLGTVSNSPASQRTPGKRPIKRPAYWRTESEEEEENASLDEQDSLGACFKDAEYIYPSLESDDDDPALKSRPKKKKNSDDAPWSPKARVTPTLPKQDRPVREGTRVASIETGLAAAAAKLAQQELQKAQKKKYIKKKPLLKEVEQPRPQDSNLSLTVPAPTVAATPQLVTSSSPLPPPEPKQEALSGSLADHEYTARPNAFGMAQANRSTTPMAPGVFLTQRRPSVGSQSNQAGQGKRPKKGLATAKQRLGRILKIHRNGKLLL
